In PubChem BioAssay AID2685 (National Center for Advancing Translational Sciences (NCATS), 2010):
This is one part of the list. These are further read-outs of the screen, such as a control signal, another cell line or another target. No call is given for them. Compounds called inactive in the main read-out are mostly missing here. Potencies come from curve fits of mixed quality, noted in brackets.

Assay: qHTS Assay for Lipid Storage Modulators in Drosophila S3 Cells;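 as to cell number change: cells counted by Cell Tracker Red CMTPX staining in the red channel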
Conditions: BODIPY lipid droplet fluorescence, 18-24 h; for cell number change: measured here: cell count max response, cells fed with added oleic acid
Method in brief: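 Drosophila S3 cells loaded with oleic acid (400 uM, as added) and compounds at several concentrations; lipid droplets imaged by 488-nm laser-scanning cytometry, 500–530 nm intensity and object ratio to cell channel. Percent activity normalized to 20 uM Triacsin C.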

[1] = measured here: cell number channel AC50, cells fed with added oleic acid
[2] = measured here: lipid fluorescence (Fed channel) AC50, cells fed with added oleic acid

| Structure (SMILES) | AC50 [1] | AC50 [2] | cell number change [%] |
| --- | --- | --- | --- |
| Cc1ccc(CS(=O)(=O)c2cn(CC(=O)Nc3ccon3)c3ccccc23)cc1 | 0.231 µM [rising, full curve, poor fit] | 0.326 µM [rising, full curve] |  |
| O=C(NC(CO)(CO)CO)[C@@H]1CCCN1S(=O)(=O)c1cccc2cccnc12 |  | 7.31 µM [rising, partial curve, poor fit] | 23.4 |
| Nc1c(Cl)ncnc1N/N=C/c1ccncc1 |  | 18.4 µM [rising, single point] | 12.8 |
| CN(C)CCCNc1ncnc2c1cnn2-c1ccccc1 |  | 6.51 µM [rising, single point] | 7 |
| CC(C)C(=O)Nc1cc(=O)[nH]c2ncnn12 |  | 29.1 µM [falling, single point] |  |
| Cc1ccccc1-n1c(-c2ccncc2)n[nH]c1=S |  | 29.1 µM [rising, single point] | -2.43 |
| COc1cc(NC(=O)COc2ccccc2)c(OC)cc1NC(C)=O |  | 18.4 µM [falling, partial curve, poor fit] | -18.1 |
| O=C(NC(=O)N1CCN(c2ccc([N+](=O)[O-])cn2)CC1)c1c(Cl)cccc1Cl | 2.31 µM [rising, full curve, poor fit] |  | 31.1 |
| CCCN(C(=O)C(NC(=O)c1ccccc1)C(C)C)c1c(N)n(Cc2ccccc2)c(=O)[nH]c1=O (stereo not drawn) |  | 3.26 µM [rising, full curve] | 17.8 |
| C=CCNC(=O)/C(C#N)=C/c1c(C)nn(-c2ccc(Cl)cc2)c1Cl |  | 16.4 µM [falling, single point] | 6.94 |
| Cc1c(/C=C/C(=O)c2cccs2)cnn1C |  | 29.1 µM [falling, single point] | -27.3 |
| COc1cccc(CNC(=O)CSCc2cnn(-c3ccccc3)c2-n2cccc2)c1 |  | 3.66 µM [rising, single point] |  |
| Cc1cc2c(cc1S(=O)(=O)CCC(=O)NC1CCC(C)CC1)OCC(=O)N2 (stereo not drawn) |  |  | -13 |
| COC(=O)C1=C(C)OC(N)=C(C#N)C1c1cc(OC)c(OCC(N)=O)cc1Cl (stereo not drawn) |  | 13 µM [falling, partial curve, poor fit] |  |
| COc1ccc(N2CCN(C(=S)Nc3ccccc3)CC2)cc1 |  | 29.1 µM [rising, single point] | 13.7 |
| N#Cc1nc(COc2ccccc2)oc1N1CCC(Cc2ccccc2)CC1 | 29.1 µM [falling, single point] |  | -33.9 |
| Cc1ccc(NC(=O)C2(C)Cc3ccccc3C(=O)O2)cc1 (stereo not drawn) | 6.51 µM [falling, single point] | 6.51 µM [falling, single point] | -0.0925 |
| COc1ccc(OCC(=O)N2CCN(C(=O)c3ccco3)CC2)cc1 |  |  | 42.1 |
| O=C(O)c1cccc(Nc2nc(Nc3ccccc3)nc(N3CCCC3)n2)c1 |  | 1.3 µM [falling, partial curve] | -10.3 |
| CCOc1ccc(Cl)cc1/C=N/NC(=O)c1ccccc1 |  | 10.3 µM [rising, partial curve] | -17.1 |

A stretch taken from the entries so far, for reference:

| Structure (SMILES) | AC50 [1] | AC50 [2] | cell number change [%] |
| --- | --- | --- | --- |
| Cc1ccccc1-n1c(-c2ccncc2)n[nH]c1=S |  | 29.1 µM [rising, single point] | -2.43 |
| COc1cc(NC(=O)COc2ccccc2)c(OC)cc1NC(C)=O |  | 18.4 µM [falling, partial curve, poor fit] | -18.1 |
| O=C(NC(=O)N1CCN(c2ccc([N+](=O)[O-])cn2)CC1)c1c(Cl)cccc1Cl | 2.31 µM [rising, full curve, poor fit] |  | 31.1 |
| CCCN(C(=O)C(NC(=O)c1ccccc1)C(C)C)c1c(N)n(Cc2ccccc2)c(=O)[nH]c1=O (stereo not drawn) |  | 3.26 µM [rising, full curve] | 17.8 |
| C=CCNC(=O)/C(C#N)=C/c1c(C)nn(-c2ccc(Cl)cc2)c1Cl |  | 16.4 µM [falling, single point] | 6.94 |
| Cc1c(/C=C/C(=O)c2cccs2)cnn1C |  | 29.1 µM [falling, single point] | -27.3 |
| COc1cccc(CNC(=O)CSCc2cnn(-c3ccccc3)c2-n2cccc2)c1 |  | 3.66 µM [rising, single point] |  |
| Cc1cc2c(cc1S(=O)(=O)CCC(=O)NC1CCC(C)CC1)OCC(=O)N2 (stereo not drawn) |  |  | -13 |
| COC(=O)C1=C(C)OC(N)=C(C#N)C1c1cc(OC)c(OCC(N)=O)cc1Cl (stereo not drawn) |  | 13 µM [falling, partial curve, poor fit] |  |
| COc1ccc(N2CCN(C(=S)Nc3ccccc3)CC2)cc1 |  | 29.1 µM [rising, single point] | 13.7 |
| N#Cc1nc(COc2ccccc2)oc1N1CCC(Cc2ccccc2)CC1 | 29.1 µM [falling, single point] |  | -33.9 |
| Cc1ccc(NC(=O)C2(C)Cc3ccccc3C(=O)O2)cc1 (stereo not drawn) | 6.51 µM [falling, single point] | 6.51 µM [falling, single point] | -0.0925 |

Following part

| Structure (SMILES) | AC50 [1] | AC50 [2] | cell number change [%] |
| --- | --- | --- | --- |
| Cc1ccc2c(c1)c1c(n2CC(O)Cn2c(C)nc3ccccc32)CCCC1 (stereo not drawn) | 29.1 µM [falling, single point] | 18.4 µM [falling, single point] | -115 |
| CC(=O)Nc1ccc(CNC(=O)C[N+]2(C)CCOCC2)cc1 |  |  | 2.51 |
| COc1ccc(N=Cc2nc(-c3ccccc3)oc2OC(=O)c2ccccc2)cc1 | 0.259 µM [rising, partial curve, poor fit] | 13 µM [rising, partial curve, poor fit] | 33.3 |
| CCCCC(=O)N=c1sc2cc([N+](=O)[O-])ccc2n1C | 0.164 µM [rising, full curve, poor fit] |  | 2.22 |
| CC(C)c1ccc(NC(=O)CSc2nc(=O)n(CCCN3CCOCC3)c3c2CCCC3)cc1 |  | 3.66 µM [falling, single point] |  |
| COc1ccc(C)cc1S(=O)(=O)NC1CCCC1 | 20.6 µM [rising, partial curve, poor fit] | 11.6 µM [rising, partial curve, poor fit] | 94.8 |
| Cc1occc1-c1nnc(SCC(=O)c2c[nH]c3ccccc23)n1C |  |  | -21.1 |
| O=S(=O)(c1ccc(-c2csc(=Nc3ccccc3)n2CCCN2CCOCC2)cc1)N1CCOCC1 |  | 29.1 µM [falling, single point] | -21.2 |
| COc1cc(/C=C/C(=O)O)cc(S(=O)(=O)Nc2ccccc2SC)c1OC | 2.91 µM [falling, full curve] |  | -35.1 |
| COc1ccccc1CNC(=O)Nc1cccs1 | 9.2 µM [rising, partial curve] | 13 µM [rising, partial curve] | 49.6 |
| O=C(Nc1c(C(=O)NCc2ccco2)cnn1-c1ccccc1)c1ccc(F)cc1 | 2.31 µM [rising, partial curve] |  |  |
| CN1CCN(CC(=O)Nc2cc(N3CCOCC3)ccc2[N+](=O)[O-])CC1 |  | 32.6 µM [falling, single point] | -0.422 |
| CC(C)n1cc(CN2CCC(Oc3ccc(C(=O)N4CCCC4)cc3)CC2)cn1 | 0.259 µM [rising, single point] | 29.1 µM [rising, partial curve, poor fit] | -21.3 |
| COc1ccc(C(=O)Nc2ccc(NC(=O)c3cccc(OC)c3)cn2)cc1 |  | 29.1 µM [falling, single point] | 4.05 |
| N#C/C(=C(/O)COC(=O)c1ccccc1O)c1nc2ccccc2s1 |  | 18.4 µM [falling, single point] | -4.62 |
| Fc1ccccc1Sc1ccccc1CNC1=NCCN1 | 18.4 µM [falling, single point] | 29.1 µM [falling, single point] | -31 |
| CCOc1ccc(N=C(NN)c2ccc3ccccc3n2)cc1 |  | 0.259 µM [rising, full curve, poor fit] | 24.1 |
| O=C(CCCN1CCOCC1)c1ccc2c(c1)OCCO2 |  |  | -4.55 |
| Cc1cc(C)nc(OC(C(=O)O)C(OCCc2ccccc2)(c2ccccc2)c2ccccc2)n1 (stereo not drawn) | 20.6 µM [falling, single point] | 0.291 µM [falling, full curve] | -40.9 |
| S=C(NCCN1CCOCC1)Nc1ccc(Cl)cc1Cl |  | 6.51 µM [rising, partial curve, poor fit] | 4.24 |

| Structure (SMILES) | AC50 [1] | AC50 [2] | cell number change [%] |
| --- | --- | --- | --- |
| CCOC(=O)CCc1c(C)c2ccc(OCC(=O)OC(C)C)cc2oc1=O | 3.66 µM [falling, full curve] | 25.9 µM [rising, single point] | -30.6 |
| Cc1cc(NC(=O)CSc2ccccn2)cc(NC(=O)CSc2ccccn2)c1 |  |  | 4.76 |
| CCOc1ccc(S(=O)(=O)N(CC(=O)NC2CCCCC2C)Cc2ccco2)cc1 (stereo not drawn) |  | 20.6 µM [falling, partial curve, poor fit] | -7.54 |
| C=C(C)c1cccc(C(C)(C)NC(=O)Nc2ccc(C)cn2)c1 |  | 29.1 µM [falling, single point] | -26 |
| C/C(=N\NC(=S)NCCc1ccccc1)c1cccs1 | 0.731 µM [falling, full curve] |  | -33.3 |
| CC(C)Cc1nnc(NC(=O)CN2C(=O)C3CCCCC3C2=O)s1 (stereo not drawn) |  | 0.146 µM [falling, partial curve, poor fit] | -50 |
| O=C(NCCC1=CCCCC1)C1CCN(S(=O)(=O)c2cccc3cccnc23)CC1 | 10.3 µM [rising, single point] | 23.1 µM [rising, partial curve] | 39.9 |
| COc1cccc(C(=O)CSc2nnc(-c3ccco3)n2CC2CCCO2)c1 (stereo not drawn) |  | 20.6 µM [rising, single point] | 20 |
| COc1cccc(-c2cc(C(=O)NCc3ccco3)no2)c1 |  |  | -17.8 |
| COc1ccc(-n2nc(C(=O)O)c3ccccc3c2=O)c(OC)c1 |  | 29.1 µM [falling, single point] | -21.9 |
| CCC(=O)Nc1ccc2c(c1)nc(CCN1CCN(C)CC1)n2C |  | 0.00461 µM [falling, full curve, poor fit] | -16.7 |
| O=C(NCc1ccccc1)c1ccc(CS(=O)(=O)Cc2ccc(F)cc2)o1 | 29.1 µM [falling, single point] |  | -32.9 |
| Cn1c(=O)n(Cc2ccc(F)cc2)c(=O)c2c1nc1n2CCCN1Cc1ccccc1 | 1.64 µM [falling, partial curve, poor fit] |  | -64 |
| O=C(c1ccco1)N1CCN(c2c(-c3ccccc3)c3cc(Cl)ccc3[nH]c2=O)CC1 | 0.82 µM [rising, partial curve] | 0.0731 µM [rising, full curve, poor fit] | -6.08 |
| COc1ccc(-n2c(C)nc3cc(C(=O)NCc4ccco4)ccc32)cc1 |  |  | 0.988 |
| CN=c1scc(-c2ccccc2F)n1/N=C/c1ccc(O)c(O)c1O | 29.1 µM [falling, single point] | 29.1 µM [falling, single point] | -89.5 |
| Cc1c(Cl)cccc1NC(=O)CCCN1C(=O)CCC1=O |  | 0.517 µM [rising, full curve] | 9.41 |
| COc1cccc(NC(=O)c2sc(Cl)nc2C)c1 |  | 2.31 µM [rising, partial curve] | -2.35 |
| COC(=O)C1CC(O)CN1C(=O)c1ccco1 (stereo not drawn) | 25.9 µM [falling, partial curve] | 3.26 µM [falling, single point] | -80.4 |
